# Source: PubChem BioAssay AID1159578 (Peter MacCallum Cancer Centre, 2015)
# Assay: 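Knock-downs that alter how fast lymphatic endothelial cells migrate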 (primary screen)
# Cells: human lymphatic endothelial cells
# Reagent: siRNA pool against human genes, 40 nM
# Time to read-out: 48 h after transfection
# Measured: 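High-content imaging of dye-stained cells in a scratch assay measures filled wound area and nuclei per well; duplicate means given as ratio to mock and robust z-score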
# Direction: migration robust z-score: higher = faster migration into the scratch; migration relative to mock: higher = more scratch area covered than mock; nuclei per well: higher = more cells in the well
# Rule for the call: 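Migration changed when robust z exceeds 2 or falls below -2 and mean nuclei number is at least 3300; otherwise not called changed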
# Calls: active = migration changed; inactive = no migration change, or too few cells
# Shown is an unselected part of about 18,000 deposited reagents. Over the whole deposit, about 1,030 (5.7%) were called active. 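Inactive calls also include pools with fewer than 3300 nuclei, whose migration was not assessed.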 Raw values are not corrected between plates.
gene,migration robust z-score,migration class with cell-count check,migration relative to mock,"nuclei per well, duplicate mean",Outcome
HSD17B4 (GeneID 3295),-0.24,migration z between -2 and 2; enough cells,0.82,6744,inactive
PSG6 (GeneID 5675),-0.17,migration z between -2 and 2; enough cells,0.84,4330,inactive
SEMA3B (GeneID 7869),0.12,migration z between -2 and 2; enough cells,0.92,5508,inactive
GNAO1 (GeneID 2775),-0.19,migration z between -2 and 2; enough cells,0.84,6492,inactive
RHCG (GeneID 51458),0.06,migration z between -2 and 2; enough cells,0.9,6300,inactive
ARL1 (GeneID 400),-1.06,migration z between -2 and 2; enough cells,0.6,5683,inactive
EXOC5 (GeneID 10640),0.43,migration z between -2 and 2; enough cells,1,6201,inactive
LRRC40 (GeneID 55631),-0.5,migration z between -2 and 2; enough cells,0.76,5487,inactive
CLEC14A (GeneID 161198),-0.48,migration z between -2 and 2; enough cells,0.76,6314,inactive
CIMAP1C (GeneID 161753),0.45,migration z between -2 and 2; enough cells,1,4032,inactive
RFTN1 (GeneID 23180),-0.94,migration z between -2 and 2; enough cells,0.64,6366,inactive
SRMS (GeneID 6725),-3.27,migration z below -2; enough cells,0.18,3972,active
GRK5 (GeneID 2869),-2.25,under 3300 nuclei; migration not judged,0.37,2413,inactive
ABCA1 (GeneID 19),-0.75,migration z between -2 and 2; enough cells,0.66,6274,inactive
RFLNA (GeneID 144347),-0.75,migration z between -2 and 2; enough cells,0.69,6205,inactive
DNAJB4 (GeneID 11080),-0.37,migration z between -2 and 2; enough cells,0.79,7330,inactive
RNF167 (GeneID 26001),0.7,migration z between -2 and 2; enough cells,0.94,4181,inactive
PHF12 (GeneID 57649),0,migration z between -2 and 2; enough cells,0.8,6078,inactive
PAAF1 (GeneID 80227),0.31,migration z between -2 and 2; enough cells,0.86,5417,inactive
ALKBH7 (GeneID 84266),-0.36,migration z between -2 and 2; enough cells,0.78,7653,inactive
ASTE1 (GeneID 28990),1.99,migration z between -2 and 2; enough cells,1.39,6216,inactive
TBC1D20 (GeneID 128637),0.42,migration z between -2 and 2; enough cells,0.99,5904,inactive
SOX2 (GeneID 6657),-0.57,migration z between -2 and 2; enough cells,0.7,6201,inactive
UBTD2 (GeneID 92181),2.88,migration z above 2; enough cells,1.63,5882,active
MAPK13 (GeneID 5603),-0.38,migration z between -2 and 2; enough cells,0.73,4426,inactive
PLCL1 (GeneID 5334),2.08,migration z above 2; enough cells,1.21,6324,active
KCNRG (GeneID 283518),0.99,migration z between -2 and 2; enough cells,1,4848,inactive
CCDC14 (GeneID 64770),-1.58,migration z between -2 and 2; enough cells,0.48,6476,inactive
GLO1 (GeneID 2739),-1.01,migration z between -2 and 2; enough cells,0.61,5344,inactive
CNOT1 (GeneID 23019),-4.85,under 3300 nuclei; migration not judged,-0.38,2414,inactive
NOMO2 (GeneID 283820),1.55,migration z between -2 and 2; enough cells,1.29,5628,inactive
LDLRAP1 (GeneID 26119),1.03,migration z between -2 and 2; enough cells,1,6242,inactive
MEIG1 (GeneID 644890),-0.09,migration z between -2 and 2; enough cells,0.86,5809,inactive
CIAO1 (GeneID 9391),0.55,migration z between -2 and 2; enough cells,0.91,5861,inactive

Sorted by “migration robust z-score” (high to low): some entries from above.
gene,migration robust z-score,migration class with cell-count check,migration relative to mock,"nuclei per well, duplicate mean",Outcome
CIMAP1C (GeneID 161753),0.45,migration z between -2 and 2; enough cells,1,4032,inactive
RFTN1 (GeneID 23180),-0.94,migration z between -2 and 2; enough cells,0.64,6366,inactive
GRK5 (GeneID 2869),-2.25,under 3300 nuclei; migration not judged,0.37,2413,inactive
SRMS (GeneID 6725),-3.27,migration z below -2; enough cells,0.18,3972,active

Additional reagents:
gene,migration robust z-score,migration class with cell-count check,migration relative to mock,"nuclei per well, duplicate mean",Outcome
DDHD2 (GeneID 23259),-0.66,migration z between -2 and 2; enough cells,0.71,4927,inactive
GRIN3A (GeneID 116443),-1.35,migration z between -2 and 2; enough cells,0.55,5548,inactive
TSACC (GeneID 128229),0.75,migration z between -2 and 2; enough cells,1.07,4346,inactive
USH1C (GeneID 10083),-0.68,migration z between -2 and 2; enough cells,0.71,4822,inactive
MYLK4 (GeneID 340156),0.8,migration z between -2 and 2; enough cells,0.96,5142,inactive
ARRDC1 (GeneID 92714),-1.34,migration z between -2 and 2; enough cells,0.53,6547,inactive
MANEAL (GeneID 149175),0.89,migration z between -2 and 2; enough cells,1.12,5178,inactive
FAM151A (GeneID 338094),0,migration z between -2 and 2; enough cells,0.88,4552,inactive
DCUN1D1 (GeneID 54165),0.62,migration z between -2 and 2; enough cells,0.92,5270,inactive
GCLM (GeneID 2730),0.13,migration z between -2 and 2; enough cells,0.83,6656,inactive
HRH2 (GeneID 3274),-0.9,migration z between -2 and 2; enough cells,0.63,4944,inactive
DDX55 (GeneID 57696),1.53,migration z between -2 and 2; enough cells,1.1,5602,inactive
COL12A1 (GeneID 1303),0.04,migration z between -2 and 2; enough cells,0.9,7388,inactive
DNAJB9 (GeneID 4189),-0.14,migration z between -2 and 2; enough cells,0.85,5656,inactive
BRCA1 (GeneID 672),-0.44,migration z between -2 and 2; enough cells,0.72,4316,inactive
WNT4 (GeneID 54361),-0.42,migration z between -2 and 2; enough cells,0.78,5672,inactive
IRS2 (GeneID 8660),-0.2,migration z between -2 and 2; enough cells,0.84,5456,inactive
CEBPB (GeneID 1051),-3.45,under 3300 nuclei; migration not judged,0.14,3144,inactive
ELF1 (GeneID 1997),-0.05,migration z between -2 and 2; enough cells,0.8,5280,inactive
EFNB3 (GeneID 1949),0.68,migration z between -2 and 2; enough cells,0.94,6336,inactive
CCDC42 (GeneID 146849),-1.74,migration z between -2 and 2; enough cells,0.42,5121,inactive
SCN5A (GeneID 6331),-0.26,migration z between -2 and 2; enough cells,0.76,5351,inactive
UBP1 (GeneID 7342),-0.82,migration z between -2 and 2; enough cells,0.67,5154,inactive
ZMYND19 (GeneID 116225),0.48,migration z between -2 and 2; enough cells,1.01,6106,inactive
FUT8 (GeneID 2530),0.4,migration z between -2 and 2; enough cells,0.99,6918,inactive
EPHX2 (GeneID 2053),-0.77,migration z between -2 and 2; enough cells,0.69,6623,inactive
MSL3 (GeneID 10943),-0.76,migration z between -2 and 2; enough cells,0.68,5730,inactive
DNTT (GeneID 1791),0.29,migration z between -2 and 2; enough cells,0.86,5592,inactive
LRRC2 (GeneID 79442),1.03,migration z between -2 and 2; enough cells,1.16,5126,inactive
MMGT1 (GeneID 93380),-0.95,migration z between -2 and 2; enough cells,0.64,3872,inactive
SLC30A7 (GeneID 148867),0.1,migration z between -2 and 2; enough cells,0.91,7448,inactive
SSTR5 (GeneID 6755),-0.88,migration z between -2 and 2; enough cells,0.64,6026,inactive
EFNA1 (GeneID 1942),-0.1,migration z between -2 and 2; enough cells,0.86,6074,inactive
TFAP4 (GeneID 7023),-0.57,under 3300 nuclei; migration not judged,0.7,2700,inactive
PKIG (GeneID 11142),0.65,under 3300 nuclei; migration not judged,0.93,844,inactive
AKAP6 (GeneID 9472),-0.05,migration z between -2 and 2; enough cells,0.8,5490,inactive
GRK4 (GeneID 2868),-1.4,migration z between -2 and 2; enough cells,0.53,5466,inactive
SNW1 (GeneID 22938),-1.9,under 3300 nuclei; migration not judged,0.44,2790,inactive
KLHL3 (GeneID 26249),-2,under 3300 nuclei; migration not judged,0.38,2991,inactive
